Laboratory results published in PubChem BioAssay AID504444 (National Center for Advancing Translational Sciences (NCATS), 2011).
Out of some 360,000 compounds screened, about 7,500 (2.1%) were called active. Inconclusive results, whose numbers are uncertain, are shown with a selection of clear calls. The call rests on the fitted dose curve; in most records, active means well fitted inhibition curve with a large enough effect; inconclusive means small, poorly fitted or top-dose-only effect, or effect the other way; inactive means flat fitted curve, though single readings scatter. Where the call is inconclusive, the potency comes from a doubtful curve fit.

experiment: Nrf2 qHTS screen for inhibitors; conditions: A549 ARE-Fluc reporter, luciferase luminescence, 18-24 h; series mostly up to 46 µM; further: nearly all actives have a fitted effect of over 60% in size
Summary of the method: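 Nrf2 activity is the BugLite luminescence, read 15 min after reagent at room temperature, following CellTiter-Fluor cytotoxicity readout (30 min, 37C). Compound titrations were applied for 18-24 h to 5000 A549 ARE_Fluc cells/well in 5% FBS OPTI-MEM.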
Potency means the concentration at half of the fitted maximal effect.

| SMILES | Potency |
| --- | --- |
| CC(C)Cc1cc(C(=O)N2CCCC(CCC(=O)N(C)CCc3ccccn3)C2)no1 (centres undefined) | inconclusive: 18.4 µM [falling, single point] |
| Cc1cc2ncn(/N=C/c3ccc(-c4ccccc4)o3)c2cc1C | inconclusive: 29.1 µM [falling, single point] |
| CC(C(=O)Nc1nncs1)N1C(=O)C2C3C=CC(C3)C2C1=O (centres undefined) | inconclusive: 11.6 µM [activator, partial curve, poor fit] |
| CC(C)n1c(/C=C/c2ccccc2)nc2ccccc21 | inconclusive: 29.1 µM [activator, single point] |
| N#C/C(=N\Nc1cccc(C(F)(F)F)c1)C(=O)c1csc(-c2cccnc2)n1 | inconclusive: 20.6 µM [falling, single point] |
| COc1cc(CCNc2ccc3nnc(-c4ccccc4)n3n2)cc(OC)c1OC | inconclusive: 0.58 µM [falling, full curve, poor fit] |
| CC(=O)O[C@H]1CC[C@H]2[C@@H]3CCc4cc(O)ccc4[C@H]3CC[C@]12C | inconclusive: 5.8 µM [falling, partial curve, poor fit] |
| CCCN1CCN(CCCNC(=O)c2ccc3c(c2)sc2nc(-c4ccc(OC)cc4)cn23)CC1 | inconclusive: 25.9 µM [falling, partial curve, poor fit] |
| O=C(/C=C/c1ccco1)Nc1ccccc1N1CCCCC1 | inconclusive: 0.13 µM [falling, full curve, poor fit] |
| O=C(O)c1ccc(N/N=C/c2ccc(OC(=O)c3ccccc3Cl)cc2)cc1 | inconclusive: 29.1 µM [falling, single point] |
| O=C(Nc1nc(NC(=O)c2ccco2)n(-c2ccccc2)n1)c1ccccc1 | inconclusive: 8.2 µM [falling, partial curve, poor fit] |
| CCn1c(/C=C/c2c[nH]c3ccccc23)nc2ccccc2c1=O | inconclusive: 1.03 µM [activator, full curve, poor fit] |
| COc1ccc(CN2C(=O)[C@H]3Cc4c([nH]c5ccccc45)C(C)(C)N3C2=O)cc1 | inconclusive: 29.1 µM [falling, single point] |
| COc1ccc(C(=O)N2CCN(c3ccc(C)cc3)CC2)cc1OC | inactive |
| CC(C)NS(=O)(=O)c1ccc(NC(=O)C(C)Oc2ccc(C(=O)c3ccccc3)cc2)cc1 (centres undefined) | inconclusive: 23.1 µM [falling, single point] |
| CC(C)(C)Nc1nc2nonc2nc1NC(C)(C)C | inconclusive: 23.1 µM [falling, single point] |
| O=c1cc(-c2cccc(F)c2)[nH]c2ccccc12 | inconclusive: 23.1 µM [activator, partial curve, poor fit] |
| Cc1cccc(N(CC(=O)NCCSc2ccc(Cl)cc2)S(C)(=O)=O)c1C | inactive |
| Cc1ccc(-c2c(C(=O)N(C)Cc3ccccc3)oc(=O)c3ccccc23)cc1 | inactive |
| C/C(=N\N1C(C)CCCC1C)c1ccccc1O (centres undefined) | inconclusive: 7.31 µM [activator, partial curve, poor fit] |
| COCCN1C(=O)/C(=C/c2ccc(OCc3ccc(C(=O)O)cc3)c(OC)c2)SC1=Nc1ccccc1 | inconclusive: 29.1 µM [falling, single point] |
| Cc1ccnc(NC(=O)C2CC(=O)N(Cc3ccccc3)C2)c1 (centres undefined) | inconclusive: 14.6 µM [activator, partial curve] |

An excerpt of these results, with bars between the fields:
SMILES | Potency
CC(C)NS(=O)(=O)c1ccc(NC(=O)C(C)Oc2ccc(C(=O)c3ccccc3)cc2)cc1 (centres undefined) | inconclusive: 23.1 µM [falling, single point]
COCCN1C(=O)/C(=C/c2ccc(OCc3ccc(C(=O)O)cc3)c(OC)c2)SC1=Nc1ccccc1 | inconclusive: 29.1 µM [falling, single point]

Continued.

| SMILES | Potency |
| --- | --- |
| COc1ccc(NC(=O)Nc2ccccc2F)cc1 | inconclusive: 0.461 µM [activator, full curve] |
| COc1ccc(CCNC(=O)CN(c2cc(C)cc(C)c2)S(=O)(=O)c2c(C)noc2C)cc1OC | inconclusive: 20.6 µM [activator, partial curve, poor fit] |
| Cc1ccccc1C(=O)NC1CCN(CC(=O)Nc2ccccc2Cl)CC1 | inconclusive: 23.1 µM [falling, partial curve, poor fit] |
| CCN(C(=O)CN1CCN(c2cccc(C(F)(F)F)c2)CC1)c1c(N)n(Cc2ccccc2)c(=O)[nH]c1=O | inconclusive: 13 µM [falling, partial curve] |
| Cc1nn2c(=O)cc(COC(=O)C(c3ccccc3)c3ccccc3)nc2s1 | inconclusive: 29.1 µM [falling, single point] |
| COc1ccc(OC)c(S(=O)(=O)N2CCC(C(=O)Nc3cc(C)ccc3C)CC2)c1 | inconclusive: 23.1 µM [falling, single point] |
| Cc1ccc(C(=O)OCCOc2cccc(Cl)c2)cc1S(=O)(=O)N1CCOCC1 | inconclusive: 32.6 µM [falling, single point] |
| CCOC(=O)c1c(NC(=O)c2c(Br)cnn2C)c(C#N)nn1-c1ccccc1 | active: 18.4 µM |
| COc1ccc(Cl)cc1NC(=O)NCc1noc2ccccc12 | inconclusive: 29.1 µM [falling, single point] |
| CC(=O)Nc1ccc(NC(=S)NC(=O)C2CC2)cc1 | inconclusive: 4.11 µM [activator, full curve] |
| CC(NC(=O)CN1C(=O)COc2ccc(Cl)cc21)c1ccccc1 (centres undefined) | inactive |
| COc1ccc2cc(CCOC3CCCCO3)ncc2c1 (centres undefined) | inconclusive: 0.651 µM [activator, full curve] |
| C=CCn1c(SCC(=O)Nc2sccc2C(N)=O)nc2sc(CC)cc2c1=O | active: 14.6 µM |
| CC(=O)N1c2ccc(S(=O)(=O)NCCC(=O)NCCc3ccc(Cl)cc3)cc2CC1C (centres undefined) | active: 20.6 µM |
| COc1ccc(CCNC(=O)NC23CC4CC(CC(C4)C2)C3)cc1 | inconclusive: 13 µM [activator, partial curve] |
| c1ccc2oc(-c3csc(N4CCOCC4)n3)cc2c1 | inconclusive: 0.651 µM [activator, partial curve] |
| CC(=O)N=c1sc2nc3ccccc3nc2n1N(C(C)=O)C(C)=O | inconclusive: 6.51 µM [falling, full curve] |
| CC1Sc2ccc(S(=O)(=O)CCC(=O)NC3CCCCC3C)cc2NC1=O (centres undefined) | inconclusive: 29.1 µM [falling, single point] |
| CCCC1=Nc2cc(C(=O)NCCCOC(C)C)ccc2Sc2ccccc21 | active: 8.2 µM |
| O=[N+]([O-])c1cccc(-c2ccc(CN3CCN(c4ccccc4)CC3)o2)c1 | inactive |
| CNN/C(N=Cc1ccc([N+](=O)[O-])s1)=N\S(=O)(=O)c1cc(C)c(Cl)cc1SCc1ccccc1 | inconclusive: 20.6 µM [falling, single point] |
| O=C(Nc1ccccc1)N(O)c1ccc(Cl)cc1 | inconclusive: 14.6 µM [activator, partial curve] |

In a second layout: results already given.
SMILES,Potency
C=CCn1c(SCC(=O)Nc2sccc2C(N)=O)nc2sc(CC)cc2c1=O,active: 14.6 µM
CC(=O)N1c2ccc(S(=O)(=O)NCCC(=O)NCCc3ccc(Cl)cc3)cc2CC1C (centres undefined),active: 20.6 µM

The listing continues.

| SMILES | Potency |
| --- | --- |
| C=C1CCN([C@H](C(=O)OCc2cccc(C)c2)C(C)C)S(=O)(=O)c2ccccc21 | inconclusive: 18.4 µM [falling, single point] |
| CC(C)=NNc1nc(-c2ccccc2)cs1 | inconclusive: 23.1 µM [activator, single point] |
| Cc1onc(-c2c(Cl)cccc2Cl)c1C(=O)N1C=CC(C(F)(F)F)=NCC1 | inconclusive: 5.17 µM [falling, partial curve, poor fit] |
| Cc1ccc(NC(=O)C(C)OC(=O)/C=C/c2ccccc2)cc1 (centres undefined) | inactive |
| CCOc1cc(CNc2ccc(S(N)(=O)=O)cc2)cc(Cl)c1OC | inconclusive: 11.6 µM [falling, partial curve, poor fit] |
| Cc1ccc(C(C)n2cc(C(=O)NCc3ccccn3)nn2)cc1 (centres undefined) | inconclusive: 0.146 µM [falling, partial curve, poor fit] |
| CC(C)c1cc(NCCN2CCOCC2)n2c(nc3ccccc32)c1C#N | inactive |
| COC(=O)c1ccc(CN=C(NS(=O)(=O)c2ccccc2)c2ccccc2)cc1 | inconclusive: 13 µM [falling, partial curve, poor fit] |
| Cc1cccc(CCNC(=O)c2nn(C)c3c2CSc2ccccc2-3)c1 | inactive |
| COc1ccccc1NS(=O)(=O)c1ccc(C)c(NC(=O)c2ccc(S(=O)(=O)N3CCCCCC3)cc2)c1 | inconclusive: 13 µM [falling, single point] |
| O=C(NCCc1ccccc1)/C(=C\c1ccccc1)NC(=O)c1ccco1 | inactive |
| Cc1ccc(NC(=O)C2CCN(C(=O)c3cnn(-c4ccccc4)c3-n3cccc3)CC2)cc1C | inconclusive: 18.4 µM [falling, single point] |
| CC1CCCCC1NC(=O)/C(C#N)=C/c1ccc2c(c1)OCCO2 (centres undefined) | inconclusive: 29.1 µM [falling, single point] |
| COc1ccc([C@H]2/C=C\CN(C(=O)c3ccc(C)cc3)[C@@H](C)C(=O)N2Cc2ccc(F)cc2)cc1 | inconclusive: 29.1 µM [falling, single point] |
| c1cncc(-c2nnc3sc(C4CCCCC4)nn23)c1 | inconclusive: 29.1 µM [falling, single point] |
| O=C(Nc1ccc(Cl)cc1Cl)c1ccc2c(c1)OCCO2 | inconclusive: 0.82 µM [activator, partial curve] |
| O=C(O)c1ccc(-c2nc(-c3ccccc3)cs2)cc1 | inconclusive: 1.46 µM [activator, full curve] |
| CC1=C/C(=C(/c2cc(C)c(O)c(Br)c2)c2ccccc2S(=O)(=O)O)C=C(Br)C1=O | inconclusive: 20.6 µM [falling, partial curve] |
| O=C(NCC(c1cccnc1)N1CCc2ccccc2C1)C(=O)Nc1ccc(F)cc1F (centres undefined) | inconclusive: 3.26 µM [activator, partial curve, poor fit] |
| COc1ccc(OC)c(S(=O)(=O)NCC(c2ccco2)N2CCc3ccccc32)c1 (centres undefined) | inconclusive: 32.6 µM [falling, single point] |
